Results are given in words; binding and its absence hold for the method and conditions named. Binding seen in cells or lysates may run through a third protein. Some results given as binding are weak or reduced against the parent protein; the word gives no strength.
Columns and labels:
[1] = molecular target: HER4 (human (endogenous in MKN45TR and NCI-N87TR)) (UniProt Q15303); experiment: co-IP; MKN45TR and NCI-N87TR cell lysates pre-cleared with protein A/G agarose beads; HER4 and YAP1 antibodies each used to pull down interacting proteins; western blotting; IgG as control
[2] = molecular target: YAP1 (human (endogenous in MKN45TR and NCI-N87TR)) (UniProt P46937); experiment: as above

Amino acid sequences for entries named in this document (tags omitted). Residues count along the entry.
UniProt Q15303, residues 26-1308: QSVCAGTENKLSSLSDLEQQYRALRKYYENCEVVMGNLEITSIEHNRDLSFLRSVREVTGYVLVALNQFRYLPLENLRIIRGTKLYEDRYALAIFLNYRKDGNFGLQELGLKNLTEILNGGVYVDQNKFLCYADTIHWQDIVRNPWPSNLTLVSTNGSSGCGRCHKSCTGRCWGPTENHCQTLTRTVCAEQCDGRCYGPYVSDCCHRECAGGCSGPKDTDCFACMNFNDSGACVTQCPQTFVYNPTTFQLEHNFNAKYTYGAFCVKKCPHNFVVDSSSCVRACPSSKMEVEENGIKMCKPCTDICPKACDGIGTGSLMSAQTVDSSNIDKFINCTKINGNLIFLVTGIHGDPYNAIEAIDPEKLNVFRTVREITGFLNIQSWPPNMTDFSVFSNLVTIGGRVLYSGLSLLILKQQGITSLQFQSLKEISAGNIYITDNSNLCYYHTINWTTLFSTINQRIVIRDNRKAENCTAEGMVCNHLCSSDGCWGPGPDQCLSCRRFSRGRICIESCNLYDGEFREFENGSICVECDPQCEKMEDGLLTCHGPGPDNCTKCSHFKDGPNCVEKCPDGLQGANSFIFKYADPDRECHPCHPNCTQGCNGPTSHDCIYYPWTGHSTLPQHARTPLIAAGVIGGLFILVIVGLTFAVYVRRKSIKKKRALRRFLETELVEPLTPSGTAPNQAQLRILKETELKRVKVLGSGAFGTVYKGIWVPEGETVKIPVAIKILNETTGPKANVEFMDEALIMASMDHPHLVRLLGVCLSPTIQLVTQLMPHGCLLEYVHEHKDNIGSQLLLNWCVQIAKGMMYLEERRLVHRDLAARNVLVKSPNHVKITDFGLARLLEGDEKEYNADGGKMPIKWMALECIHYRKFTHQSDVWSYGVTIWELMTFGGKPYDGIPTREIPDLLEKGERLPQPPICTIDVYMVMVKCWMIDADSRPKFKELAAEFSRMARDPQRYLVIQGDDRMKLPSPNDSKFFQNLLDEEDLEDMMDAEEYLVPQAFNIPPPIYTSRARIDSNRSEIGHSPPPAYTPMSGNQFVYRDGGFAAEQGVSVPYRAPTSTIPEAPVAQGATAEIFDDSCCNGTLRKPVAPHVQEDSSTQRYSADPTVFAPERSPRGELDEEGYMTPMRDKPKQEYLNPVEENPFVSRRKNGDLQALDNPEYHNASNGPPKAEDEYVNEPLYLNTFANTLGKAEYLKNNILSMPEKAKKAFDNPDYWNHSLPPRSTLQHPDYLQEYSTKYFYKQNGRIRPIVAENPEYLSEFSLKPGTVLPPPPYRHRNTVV
UniProt P46937: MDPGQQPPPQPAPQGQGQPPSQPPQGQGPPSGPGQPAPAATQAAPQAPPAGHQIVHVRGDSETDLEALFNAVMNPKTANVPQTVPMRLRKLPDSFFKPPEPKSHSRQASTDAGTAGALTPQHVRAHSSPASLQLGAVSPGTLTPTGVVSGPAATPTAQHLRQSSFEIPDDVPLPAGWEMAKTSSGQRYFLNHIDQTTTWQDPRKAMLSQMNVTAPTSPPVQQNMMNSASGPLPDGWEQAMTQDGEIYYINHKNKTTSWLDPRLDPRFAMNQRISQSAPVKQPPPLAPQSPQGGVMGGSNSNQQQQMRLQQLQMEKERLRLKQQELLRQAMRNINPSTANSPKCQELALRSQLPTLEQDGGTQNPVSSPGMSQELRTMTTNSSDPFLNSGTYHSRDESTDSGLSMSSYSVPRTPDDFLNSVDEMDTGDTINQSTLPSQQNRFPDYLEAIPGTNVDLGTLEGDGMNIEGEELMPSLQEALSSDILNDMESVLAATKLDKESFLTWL

binding [1]	binding [2]	Substance
binds		YAP1 (from UniProt P46937 1-504)
	binds	HER4 (from UniProt Q15303 26-1308) (receptor)
